Assay results published in the supplement of paper PMC8166895.
Where a name gives a salt, the structure may show the parent alone. Some of the results follow. Most entries show no effect beyond the scatter of the controls.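 Differential scanning fluorimetry gave melting temperatures in a one-replicate pilot screen of a library of approved drugs plus clinical or known-target compounds. Hits increasing melting point at least 2 °C were the strongest stabilizers, while negative shifts signify destabilization.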 Where a SMILES comes first, the peptide text is derived from it.

These compounds were tested on SARS-CoV-2 main protease (Mpro, nsp5) (assay: thermal shift ΔTm of Mpro relative to plate average Tm; higher = stronger thermal stabilization of Mpro (binding)). Settings: 10 µM; protein concentration 1 µM.

SMILES	thermal shift ΔTm of Mpro [°C]
CC(C)[N+]1(C)[C@@H]2CC[C@H]1C[C@@H](OC(=O)C(CO)c1ccccc1)C2 (some centres undefined) [Ipratropium Bromide]	-0.104
CC(C)[N+]1(C)[C@@H]2CC[C@H]1C[C@@H](OC(=O)C(CO)c1ccccc1)C2 (some centres undefined) [Ipratropium bromide monohydrate]	0.0335
CC(C)(C)c1ccccc1Oc1ncccc1NC(=O)Nc1ccc(OC(F)(F)F)cc1	0.0951
Cc1ccc(-c2cc(C(F)(F)F)nn2-c2ccc(S(N)(=O)=O)cc2)cc1 [Celecoxib]	-0.173
C[C@]12CC[C@@H]3c4ccc(O)cc4C[C@@H](CCCCCCCCC[S+]([O-])CCCC(F)(F)C(F)(F)F)[C@H]3[C@@H]1CC[C@@H]2O (some centres undefined) [Fulvestrant]	-0.0432
COc1c(/C=C/C(=O)c2ccc(O)cc2)ccc(O)c1CC=C(C)C	-0.105
CNC(=O)[C@@H](NC(=O)[C@H](CC(C)C)[C@H](O)C(=O)NO)C(C)(C)C [Marimastat(BB-2516)]	-0.103
O=C(NCCCN1CCOCC1)c1ccc(Cl)cc1 [Eprobemide]	0.0113
Clc1ccc(C2(c3ccc(-c4cn[nH]c4)cc3)CCNCC2)cc1	-0.182
C=C[C@](C)(O)CC[C@@H]1[C@@]2(C)CCCC(C)(C)[C@@H]2CC[C@@]1(C)O [Sclareol]	-0.15
O=C(O)CC(C(=O)O)n1c(O)c(C2=c3cc(Br)ccc3=NC2=O)sc1=S (centres undefined)	-0.083
CC1(C)C(=O)N(c2ccc(C#N)c(C(F)(F)F)c2)C(=O)N1CCCCO	0.264
NC(=O)C1CCCc2c1[nH]c1ccc(Cl)cc21 (centres undefined) [EX 527 (Selisistat)]	-0.188
CCS(=O)(=O)c1cccc(-c2cc(C(=O)NC3CCN(C)CC3)c(C)c3[nH]c4ncc(C)cc4c23)c1	-0.0879
COC(=O)[C@H](Cc1ccccc1)NC(=O)[C@@H](N)CC(=O)O [Aspartame] (H-Asp-Phe-OMe)	0.0614
Cc1ccc(S(=O)(=O)Nc2nc3ccccc3nc2Nc2ccc3nsnc3c2)cc1 [XL147 analogue]	0.282
O[C@@](Cc1ncc(CC2(C(F)(F)F)CC2)[nH]1)(c1ccc(-n2cccn2)cc1)C(F)(F)F	0.23
CCOC(=O)C1=C(N)Oc2ccc(Br)cc2C1C(C#N)C(=O)OCC (centres undefined)	-0.615
N#C/C(=C1/SC[C@@H](c2ccc(Cl)cc2Cl)S1)n1ccnc1 [Luliconazole]	-0.195
O=C1O[C@H]([C@@H](O)CO)C([O-])=C1O.[Na+] [Sodium ascorbate]	-0.0649
CCCCOc1cc(C(=O)OCCN(CC)CC)ccc1N [Oxybuprocaine HCl]	-0.172
O=[N+]([O-])c1ccc(Nc2nc(N3CCOCC3)nc(N3CCOCC3)n2)cc1	0.00358
Cc1cc(Nc2cc(N3CCN(C)CC3)nc(Sc3ccc(NC(=O)C4CC4)cc3)n2)n[nH]1 [VX-680 (Tozasertib, MK-0457)]	-0.0607
Clc1ccc2nsnc2c1NC1=NCCN1 [Tizanidine HCl]	0.16
CCCCOc1ccc(C(=O)Nc2ccc(F)cc2F)cc1	-0.0215

Rewritten with each value named: entries from further up.
Clc1ccc(C2(c3ccc(-c4cn[nH]c4)cc3)CCNCC2)cc1
  thermal shift ΔTm of Mpro [°C]: -0.182
C=C[C@](C)(O)CC[C@@H]1[C@@]2(C)CCCC(C)(C)[C@@H]2CC[C@@]1(C)O [Sclareol]
  thermal shift ΔTm of Mpro [°C]: -0.15
O=C(O)CC(C(=O)O)n1c(O)c(C2=c3cc(Br)ccc3=NC2=O)sc1=S (centres undefined)
  thermal shift ΔTm of Mpro [°C]: -0.083

Further records follow.

SMILES	thermal shift ΔTm of Mpro [°C]
Nc1nc(OCc2cc(Br)cs2)c2[nH]cnc2n1 [Lomeguatrib]	-0.218
COc1c(Nc2ncc(Cl)c(N[C@H]3[C@@H](C(N)=O)[C@@H]4C=C[C@H]3C4)n2)ccc2c1CC[C@@H](N1CCOCC1)CC2	0.148
Cc1cc2cc3c(C)cc(=O)oc3c(C)c2o1 [Trioxsalen]	-0.011
CC1(C)CC[C@]2(C(=O)O)[C@H](O)C[C@]3(C)C(=CC[C@@H]4[C@@]5(C)C[C@H](O)[C@H](O)[C@@](C)(CO)[C@@H]5CC[C@]43C)[C@@H]2C1 [Polygalacic acid]	-0.0864
CC(C)Oc1ccc2c(=O)c(-c3ccccc3)coc2c1 [Ipriflavone (Osteofix)]	-0.0303
NC1(Cc2ccc(Cl)cc2)CCN(c2ncnc3[nH]ccc23)CC1	-0.00429
Cc1cc(C(C)Nc2ccccc2)c2nc(N3CCOCC3)cc(=O)n2c1 (centres undefined)	0.132
COc1cccc2c1C(=O)c1c(O)c3c(c(O)c1C2=O)C[C@@](O)(C(=O)CO)C[C@@H]3O[C@H]1C[C@H](N)[C@H](O[C@@H]2CCCCO2)[C@H](C)O1 [Pirarubicin]	0.278
CCOC(=O)C1=C(N)Oc2ccc(Cl)cc2C1C(C#N)C(=O)OCC (centres undefined)	-0.928
COC(=O)C1=CO[C@@H](O)[C@@H]2C(CO)=CC[C@H]12 [Genipin]	-0.0261
Cc1nc(C(=O)NCC(=O)O)c(O)c2ccc(Oc3ccccc3)cc12	-0.118
COc1cc2c(NC3CCN(C(C)C)CC3)nc(N3CCC(F)(F)CC3)nc2cc1OCCCN1CCCC1	0.105
CC(C)(NC(=O)O[C@@H]1CN2CCC1CC2)c1csc(-c2ccc(F)cc2)n1 [Ibiglustat]	-0.0188
O=C1C=CC(=O)c2ccccc21 [1,4-Naphthoquinone]	-1.7
CCCCCCNC(=O)n1cc(F)c(=O)[nH]c1=O [Carmofur]	0.247
CCC[C@@H]1C[C@@H](C(=O)N[C@@H]([C@H]2O[C@H](SC)[C@H](OP(=O)(O)O)[C@@H](O)[C@H]2O)[C@H](C)Cl)N(C)C1 [Clindamycin phosphate]	0.38
CC(C)n1cnc2c(Nc3cccc(Cl)c3)nc(NCCO)nc21	0.0359
COc1ccc(Cl)cc1C(=O)NCCc1ccc(S(=O)(=O)NC(=O)NC2CCCCC2)cc1 [Glyburide]	-0.0162
Nc1nc(=O)n([C@@H]2CS[C@H](CO)O2)cc1F [Emtricitabine]	-0.0459
CN(C)CCc1ccc(O)cc1 [Hordenine]	0.264
CC#C[C@]1(O)CC[C@H]2[C@@H]3CCC4=CC(=O)CCC4=C3[C@@H](c3ccc(N(C)C)cc3)C[C@@]21C [Mifepristone]	-0.204
CCc1cccc(CC)c1NC(=O)N1Cc2[nH]nc(NC(=O)c3ccc(N4CCN(C)CC4)cc3)c2C1	0.174
COC(=O)N[C@@H](C)CNc1nccc(-c2cn(C(C)C)nc2-c2cc(Cl)cc(NS(C)(=O)=O)c2F)n1 [Encorafenib]	0.185
CC[C@@H]1C(=O)N(C)c2cnc(Nc3ccc(C(=O)N[C@H]4CC[C@H](N5CCN(CC6CC6)CC5)CC4)cc3OC)nc2N1C(C)C [Volasertib (BI 6727)]	-0.188
